Reference: patent US7026466B1, “Serotonin-gated anion channel” (Massachusetts Institute of Technology, priority 1999, dated 2006)
At least one structure is not confirmed: it was looked up by name or label, or the drawing left a doubt.

Amino acid sequences for entries named in this document (tags omitted). A change or cut given only in a name is not applied to a line headed by its entry.
UniProt Q9GQ00: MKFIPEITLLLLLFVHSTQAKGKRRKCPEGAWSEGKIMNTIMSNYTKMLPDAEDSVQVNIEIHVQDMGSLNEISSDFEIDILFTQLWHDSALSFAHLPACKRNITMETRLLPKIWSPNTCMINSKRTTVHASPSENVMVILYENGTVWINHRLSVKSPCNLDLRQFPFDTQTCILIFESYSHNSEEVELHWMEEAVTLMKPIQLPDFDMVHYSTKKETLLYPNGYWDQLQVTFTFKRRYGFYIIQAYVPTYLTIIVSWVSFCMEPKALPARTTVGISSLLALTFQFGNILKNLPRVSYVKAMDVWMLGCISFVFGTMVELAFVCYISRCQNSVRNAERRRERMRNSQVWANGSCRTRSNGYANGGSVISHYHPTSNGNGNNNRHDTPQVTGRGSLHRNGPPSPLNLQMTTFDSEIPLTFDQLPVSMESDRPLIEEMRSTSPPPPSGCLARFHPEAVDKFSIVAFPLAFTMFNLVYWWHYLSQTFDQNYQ

Molecular target: MOD-1 channel (Caenorhabditis elegans, UniProt Q9GQ00)
Test: Voltage clamp of MOD-1 heterologously expressed in Xenopus oocytes or HEK cells
Assay type: cell-based, C. elegans

## CC(=O)OCC[N+](C)(C)C [acetylcholine]
  response from the MOD-1 channel: little or no response
